For at least one compound, name, drawing or mass did not settle the structure. Some results were stated once for a whole list of compounds, not compound by compound.
How the values were obtained:
[1] = system: rat pups challenged with cytoxan; assay: Cytoxan (CTX)-induced alopecia model in rat pups, topical polyamine effector; assay type: in vivo, Sprague Dawley rat
Description: Induction of alopecia by cytoxan (CTX). Lactating Sprague Dawley mother rats with rat pups were purchased from Harlan Sprague Dawley (Indianapolis, Ind.). The mother rats were given food and water ad libitum. The rats pups were tested in the model of chemotherapy-induced alopecia described by Hussein A. M. et al., Science: 249, 1564 (1990). Cytoxan (CTX), a chemotherapeutic widely used in the treatment of cancer, was used to induce alopecia in the rats. A common side effect of cytoxan in patients is alopecia. Cytoxan and polyamine effector compounds were purchased from Sigma Chemicals Co. (St. Louis, Mo.). To produce CTX-induced alopecia, 7 to 10 day old rat pups were injected i.p. with 35 mg/kg of CTX prepared in phosphate-buffered saline. To produce reproducible CTX induced alopecia, we first tested several concentrations (35, 40, 45 ug/gm body weight) of CTX in phosphate-buffered saline (PBS), which was injected i.p. in 7–10 day old pups. Seven to ten days after CTX treatment the pups were examined to determine the degree of hair loss. The density of hair on the pups was then determined. 100% hair density represents that found on the untreated control pups while 0% represented pups with total hair loss. It was observed that 35 ug/gm of CTX was sufficient to induce 100% hair loss approximately 7 days after cytoxan challenge, and this concentration was used in subsequent experiments.
Different types of polyamine effector agents were tested in this model. The effectors were prepared in a delivery vehicle, consisting of from 60–100% ethanol in water, depending on the solubility of the compound. The compounds in ethanol/water solution from 50–150 μl in volume were topically administered to the backs of the pups once per day before and after CTX challenge. […]
Approximately 7 to 10 days after CTX treatment, the pups were evaluated for alopecia. Hair loss was evaluated using a modified alopecia-scoring index described by Chen G. et al., Int. […]
Induction of alopecia by cytoxan (CTX). […] The density of hair on the pups was then determined. […]

[2] = system: rat pups challenged with cytarbine; assay: Cytarbine-induced alopecia model in rat pups; assay type: in vivo; settings: treatment (1 mM), vehicle 4.0
Excerpt: (§1) Alopecia was induced in rat pups by Cytoxan, cytarbine, doxorubicin and radiation, according to the methods described in the previous examples. Polyamines from three different structural families, obtained from two different sources, gave excellent results in animal alopecia models for Cytoxan, cytarbine and doxorubicin.

[3] = system: rat pups challenged with doxorubicin; assay: Doxorubicin-induced alopecia model in rat pups; assay type: in vivo; settings: vehicle 4.0
Excerpt: as §1

NCCCCCN [Cadaverine]
alopecia scores (range given) ([1]; Example 1, at the concentrations shown in Table 1): 2.0–2.5

CCNCCCCNCCCCNCCCCNCCCCNC/C=C/CNCCCCNCCCCNCCCCNCCCCNCC [SL-11144]
Alopecia Scores (individual animals) [2]: 2, 4
Alopecia Scores (individual animals) [3]: 0, 0

CNCCCNCC#CCNCCCNC [SL-11092]
Alopecia Scores (individual animals) ([1]; Table 10, treatment (1 mM), vehicle 4.0): 0, 0
Alopecia Scores (individual animals) ([1]; Table 15, cytoxan-induced, re-screening summary): 0, 0
